Laboratory results published in patent EP4578918A1, “PHOTOSENSITIZERS FOR PHOTOPOLYMERIZATION” (IGM Group B.V., priority 2023, dated 2025).

Test: Yellow Index (YI) of cured coating, ASTM E313
[1] = photoinitiator alone, 4 wt%, no photosensitizer, Lamp 1 (UV Hg lamp, 120 W/cm)
[2] = photoinitiator alone, 4 wt%, no photosensitizer, Lamp 2 (UV LED 395 nm, 16 W/cm^2)
[3] = photoinitiator alone, 4 wt%, no photosensitizer, Lamp 3 (UV LED 365 nm, 16 W/cm^2)
[4] = photoinitiator alone, 5 wt%, no photosensitizer, Lamp 1 (UV Hg lamp, 120 W/cm)
[5] = photoinitiator alone, 5 wt%, no photosensitizer, Lamp 2 (UV LED 395 nm, 16 W/cm^2)
[6] = photoinitiator alone, 5 wt%, no photosensitizer, Lamp 3 (UV LED 365 nm, 16 W/cm^2)
[7] = 4 wt% PI-1 + 1 wt% photosensitizer, Lamp 1 (UV Hg lamp, 120 W/cm), 24 hours after crosslinking
[8] = 4 wt% PI-1 + 1 wt% photosensitizer, Lamp 2 (UV LED 395 nm, 16 W/cm^2), 24 hours after crosslinking
[9] = 4 wt% PI-1 + 1 wt% photosensitizer, Lamp 3 (UV LED 365 nm, 16 W/cm^2), 24 hours after crosslinking
[10] = 4 wt% PI-2 + 1 wt% photosensitizer, Lamp 1 (UV Hg lamp, 120 W/cm), 24 hours after crosslinking
[11] = 4 wt% PI-2 + 1 wt% photosensitizer, Lamp 2 (UV LED 395 nm, 16 W/cm^2), 24 hours after crosslinking
[12] = 4 wt% PI-2 + 1 wt% photosensitizer, Lamp 3 (UV LED 365 nm, 16 W/cm^2), 24 hours after crosslinking

Cc1cc(C)c(C(=O)P(=O)(C(=O)c2c(C)cc(C)cc2C)c2ccccc2)c(C)c1 [PI-1, bis(2,4,6-trimethylbenzoyl) phenylphosphine oxide, reference compound]
yellow index [1]: 2.84
yellow index [2]: 1.63
yellow index [3]: 2.04
yellow index [4]: 3.64
yellow index [5]: 2.68
yellow index [6]: 2.84

CCCCCCCCP(=O)(C(=O)c1c(C)cc(C)cc1C)C(=O)c1c(C)cc(C)cc1C [PI-2, bis(2,4,6-trimethylbenzoyl) octylphosphine oxide, reference compound]
yellow index [1]: 2.20
yellow index [2]: 0.59
yellow index [3]: 0.60
yellow index [4]: 3.01
yellow index [5]: 1.22
yellow index [6]: 1.06

Cc1cc(C)c(C(=O)P(=O)(c2ccccc2)c2ccccc2)c(C)c1 [PI-3, 2,4,6-trimethylbenzoyl-diphenyl phosphine oxide, reference compound]
yellow index [1]: 0.67
yellow index [2]: 0.92
yellow index [3]: 0.93
yellow index [4]: 0.82
yellow index [5]: 0.62
yellow index [6]: 1.02

CCOP(=O)(C(=O)c1c(C)cc(C)cc1C)c1ccccc1 (centres unmarked) [PI-4, ethyl(2,4,6-trimethylbenzoyl)-phenyl phosphinate, reference compound]
yellow index [1]: 0.30
yellow index [3]: 0.85
yellow index [4]: 0.57
yellow index [5]: 0.54
yellow index [6]: 0.74

COc1cccc(OC)c1C(=O)P(=O)(CC(C)CC(C)(C)C)C(=O)c1c(OC)cccc1OC (centres unmarked) [PI-5, bis(2,6-dimethoxybenzoyl)-2,4,-trimethylpentylphsophine oxide, reference compound]
yellow index [1]: 2.63
yellow index [2]: 2.19
yellow index [3]: 2.37
yellow index [4]: 2.93
yellow index [5]: 2.52
yellow index [6]: 2.33

CCSc1ccc2cc(-c3ccccc3)c(=O)oc2c1 [S1]
yellow index [7]: 2.82
yellow index [8]: 1.74
yellow index [9]: 1.64
yellow index [10]: 2.82
yellow index [11]: 0.73
yellow index [12]: 0.57
yellow index (4 wt% PI-3 + 1 wt% photosensitizer, Lamp 1 (UV Hg lamp, 120 W/cm), 24 hours after crosslinking): 0.45
yellow index (4 wt% PI-3 + 1 wt% photosensitizer, Lamp 2 (UV LED 395 nm, 16 W/cm^2), 24 hours after crosslinking): 0.93
yellow index (4 wt% PI-3 + 1 wt% photosensitizer, Lamp 3 (UV LED 365 nm, 16 W/cm^2), 24 hours after crosslinking): 1.00
yellow index (4 wt% PI-4 + 1 wt% photosensitizer, Lamp 1 (UV Hg lamp, 120 W/cm), 24 hours after crosslinking): 0.59
yellow index (4 wt% PI-4 + 1 wt% photosensitizer, Lamp 2 (UV LED 395 nm, 16 W/cm^2), 24 hours after crosslinking): 1.10
yellow index (4 wt% PI-4 + 1 wt% photosensitizer, Lamp 3 (UV LED 365 nm, 16 W/cm^2), 24 hours after crosslinking): 0.78
yellow index (4 wt% PI-5 + 1 wt% photosensitizer, Lamp 1 (UV Hg lamp, 120 W/cm), 24 hours after crosslinking): 2.42
yellow index (4 wt% PI-5 + 1 wt% photosensitizer, Lamp 2 (UV LED 395 nm, 16 W/cm^2), 24 hours after crosslinking): 1.62
yellow index (4 wt% PI-5 + 1 wt% photosensitizer, Lamp 3 (UV LED 365 nm, 16 W/cm^2), 24 hours after crosslinking): 1.02

CCCCC(CC)CSc1ccc2cc(-c3ccccc3)c(=O)oc2c1 (centres unmarked) [S2]
yellow index [7]: 2.45
yellow index [8]: 1.77
yellow index [9]: 1.83
yellow index [10]: 2.20
yellow index [11]: 1.40
yellow index [12]: 1.35

CCSc1ccc(-c2cc3ccc(SCC)cc3oc2=O)cc1 [S3]
yellow index [7]: 2.28
yellow index [8]: 1.82
yellow index [9]: 1.81
yellow index [10]: 2.34
yellow index [11]: 1.58
yellow index [12]: 1.65

CN(C)CCSc1ccc2cc(-c3ccccc3)c(=O)oc2c1 [S4]
yellow index [7]: 3.77
yellow index [8]: 2.00
yellow index [9]: 2.22
yellow index [10]: 2.46
yellow index [11]: 1.24
yellow index [12]: 1.28

Cc1cc(=O)oc2cc(SCCO)ccc12 [S5]
yellow index [7]: 2.70
yellow index [8]: 1.76
yellow index [9]: 1.85
yellow index [10]: 2.30
yellow index [11]: 0.65
yellow index [12]: 1.46

Cc1c(-c2ccccc2)c(=O)oc2cc(SCCO)ccc12 [S6]
yellow index [7]: 2.57
yellow index [8]: 1.31
yellow index [9]: 1.33
yellow index [10]: 2.13
yellow index [11]: 1.45
yellow index [12]: 1.17

CSc1ccc2cc(-c3nc4ccccc4n3C)c(=O)oc2c1 [S7]
yellow index [7]: 12.91
yellow index [8]: 10.75
yellow index [9]: 10.37
yellow index [10]: 7.35
yellow index [11]: 5.91
yellow index [12]: 6.31

CCSc1ccc2ccc(=O)oc2c1 [S9]
yellow index [7]: 2.17
yellow index [8]: 1.20
yellow index [9]: 1.67
yellow index [10]: 2.84
yellow index [11]: 0.90
yellow index [12]: 1.44
